# Laboratory results as given in patent US20140243286A1, “BROMODOMAIN LIGANDS CAPABLE OF DIMERIZING IN AN AQUEOUS SOLUTION, AND METHODS OF USING SAME” (Coferon, Inc., priority 2011, published 2014).
# Some entries share one result that the patent states for a list of compounds.
# Tested on: bromodomain
# Experiment: TR-FRET assay
# Type: binding
# Conditions: BRD-E monomers; read-out: IC50 range, Group (FRET assay)
# Procedure: TR-FRET assays were performed as described in Chung et al, J. Med Chem., 2011 54(11): 3827-38 except that FRET was measured on a Spectramax M5 plate reader.
row,Compound,IC50
1,"COc1ccc2c(c1)C(c1ccc(Cl)cc1)=N[C@@H](CC(=O)NCCNC(=O)c1ccc(B(O)O)cc1)c1nnc(C)n1-2 [BRD-E-01, (4-((2-(2-((4S)-6-(4-chlorophenyl)-8-methoxy-1-methyl-4H-benzo[f][1,2,4]triazolo[4,3-a][1,4]diazepin-4-yl)acetamido)ethyl)carbamoyl)phenyl)boronic acid]",1 to 100 nM
2,"COc1ccc2c(c1)C(c1ccc(Cl)cc1)=N[C@@H](CC(=O)NCCNC(=O)c1cccc(B(O)O)c1)c1nnc(C)n1-2 [BRD-E-02, (3-((2-(2-((4S)-6-(4-chlorophenyl)-8-methoxy-1-methyl-4H-benzo[f][1,2,4]triazolo[4,3-a][1,4]diazepin-4-yl)acetamido)ethyl)carbamoyl)phenyl)boronic acid]",1 to 100 nM
3,"COc1ccc2c(c1)C(c1ccc(Cl)cc1)=N[C@@H](CC(=O)NCCCCCNC(=O)c1ccc(B(O)O)cc1)c1nnc(C)n1-2 [BRD-E-07, (4-((5-(2-((4S)-6-(4-chlorophenyl)-8-methoxy-1-methyl-4H-benzo[f][1,2,4]triazolo[4,3-a][1,4]diazepin-4-yl)acetamido)pentyl)carbamoyl)phenyl)-boronic acid]",1 to 100 nM

# Same assay, conditions: BRD-S monomers; based on monomer concentration; read-out: IC50 range (based on monomer concentration), Group (FRET assay)
row,Compound,IC50
1,"COc1ccc2c(c1)C(c1ccc(Cl)cc1)=N[C@@H](CC(=O)NCCNC(=O)c1ccc([Si](C)(C)O)cc1)c1nnc(C)n1-2 [BRD-S-01, N-(2-(2-((4S)-6-(4-chlorophenyl)-8-methoxy-1-methyl-4H-benzo[f][1,2,4]triazolo[4,3-a][1,4]diazepin-4-yl)acetamido)ethyl)-4-(hydroxydimethylsilyl)benzamide]",1 to 100 nM
2,"COc1ccc2c(c1)C(c1ccc(Cl)cc1)=N[C@@H](CC(=O)NCCNC(=O)c1cccc([Si](C)(C)O)c1)c1nnc(C)n1-2 [BRD-S-02, N-(2-(2-((4S)-6-(4-chlorophenyl)-8-methoxy-1-methyl-4H-benzo[f][1,2,4]triazolo[4,3-a][1,4]diazepin-4-yl)acetamido)ethyl)-3-(hydroxydimethylsilyl)benzamide]",1 to 100 nM
3,COc1ccc2c(c1)C(c1ccc(Cl)cc1)=N[C@@H](CC(=O)NCCCNC(=O)c1cccc([Si](C)(C)O)c1)c1nnc(C)n1-2 [BRD-S-04],1 to 100 nM
4,"COc1ccc2c(c1)C(c1ccc(Cl)cc1)=N[C@@H](CC(=O)NCCCCNC(=O)c1ccc([Si](C)(C)O)cc1)c1nnc(C)n1-2 [BRD-S-05, N-(4-(2-((4S)-6-(4-chlorophenyl)-8-methoxy-1-methyl-4H-benzo[f][1,2,4]triazolo[4,3-a][1,4]diazepin-4-yl)acetamido)butyl)-4-(hydroxydimethylsilyl)benzamide]",1 to 100 nM
5,COc1ccc2c(c1)C(c1ccc(Cl)cc1)=N[C@@H](CC(=O)NCCCCNC(=O)c1cccc([Si](C)(C)O)c1)c1nnc(C)n1-2 [BRD-S-06],1 to 100 nM
6,"COc1ccc2c(c1)C(c1ccc(Cl)cc1)=N[C@@H](CC(=O)NCCCCCNC(=O)c1ccc([Si](C)(C)O)cc1)c1nnc(C)n1-2 [BRD-S-07, N-(5-(2-((4S)-6-(4-chlorophenyl)-8-methoxy-1-methyl-4H-benzo[f][1,2,4]triazolo[4,3-a][1,4]diazepin-4-yl)acetamido)pentyl)-4-(hydroxydimethylsilyl)benzamide]",1 to 100 nM
7,"COc1ccc2c(c1)C(c1ccc(Cl)cc1)=N[C@@H](CC(=O)NCCCCCNC(=O)c1cccc([Si](C)(C)O)c1)c1nnc(C)n1-2 [BRD-S-08, N-(5-(2-((4S)-6-(4-chlorophenyl)-8-methoxy-1-methyl-4H-benzo[f][1,2,4]triazolo[4,3-a][1,4]diazepin-4-yl)acetamido)pentyl)-3-(hydroxydimethylsilyl)benzamide]",1 to 100 nM
